The exact form of at least one protein or probe is not confirmed.
Biological target: alpha-synuclein fibrils (aggregates) (UniProt P37840)
Experiment: single-molecule TIRF imaging (AD-PAINT) on surface-captured fibrils
Settings: 100 nM Aptamer-DS1, 1 nM IS1-cy3B, 5 uM thioflavin-T, PBS with 100 nM aptamer-DS1, 1 nM IS1-cy3B, aptamer annealed in 1 M KCl, 0.1 M lithium cacodylate pH 7.3, imaging temperature not given, recombinant protein, folded or branched DNA

“GCCTGTGGTGTTGGGGCGGGTGCGTTATACATCTA [Aptamer-DS1]”: binds.

From paper PMC8914601
